# Results from the supplement of paper PMC9135407.
# Where “and” joins values, the source holds several entries; their conditions need not be identical. Equal values may be shown once. Where a name gives a salt, the structure may show the parent alone. ± gives the standard deviation of the averaged measurements. The list shows a part of the results. Baselines shift from plate to plate; read single values as rough.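 Assay uses culture-activated primary human stellate myofibroblasts; lipid droplet recovery indicates inactivation. Measured: proportion of Hoechst-counted cells over a plate-specific Bodipy cutoff, duplicate wells, DMSO and nortriptyline as per-plate negative and positive controls. A hit scores, control-normalized, above the plate's top-tenth-percentile nortriptyline wells or ranks among its three best wells. Final well concentrations not reported.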
# Tested on: primary human hepatic stellate cells (donor 1)
# Assay: percent Bodipy-positive cells; higher = more lipid droplet accumulation
# Conditions: 48 h
# [1] = library stock concentration: 3.33 mM
# [2] = library stock concentration: 10 mM
# [3] = library stock concentration: 80 uM
# [4] = library stock concentration: 400 uM
# [5] = library stock concentration: 2 mM
# [6] = library stock concentration: 1 mM
structure (smiles),measurement,setting,value
CCCc1nc(C)c2c(=O)nc(-c3cc(S(=O)(=O)N4CCN(CC)CC4)ccc3OCC)[nH]n12 [Vardenafil HCl Trihydrate],percent Bodipy-positive cells,[1],13.6 ± 5.8%
same,percent Bodipy-positive cells,[2],44.2 ± 4.7%
CCCc1nc(C)c2c(=O)nc(-c3cc(S(=O)(=O)N4CCN(CC)CC4)ccc3OCC)[nH]n12,percent Bodipy-positive cells,[2],28.3 ± 9.6%
CNC(=O)c1cc(COc2nnc(Nc3ccc(Cl)cc3)c3ccoc23)ccn1 [Telatinib],percent Bodipy-positive cells,[1],37.8 ± 5.8%
same,percent Bodipy-positive cells,[2],72.7 ± 2.7%
COc1cc2nccc(Oc3ccc(NC(=O)C4(C(=O)Nc5ccc(F)cc5)CC4)cc3)c2cc1OC,percent Bodipy-positive cells,[3],5.25 ± 0.098%
same,percent Bodipy-positive cells,[4],7.04 ± 2.5%
same,percent Bodipy-positive cells,[5],19.9 ± 2.2%
same,percent Bodipy-positive cells,[1],58.7 ± 8.9%
same,percent Bodipy-positive cells,[2],63.8% and 60.8%
COc1cc2nccc(Oc3ccc(NC(=O)C4(C(=O)Nc5ccc(F)cc5)CC4)cc3)c2cc1OC [Cabozantinib malate (XL184)],percent Bodipy-positive cells,[1],35.1 ± 3.2%
same,percent Bodipy-positive cells,[2],67.4 ± 3.4%
O=C(O)/C=C/c1ccc(Cn2ccnc2)cc1 [Ozagrel],percent Bodipy-positive cells,[6],10 ± 1.5%
same,percent Bodipy-positive cells,[1],8.46 ± 2.4%
same,percent Bodipy-positive cells,library stock concentration: 8.8 mM,11.4 ± 5.2%
same,percent Bodipy-positive cells,[2],12.3 ± 6.2%
O=C(O)/C=C/c1ccc(Cn2ccnc2)cc1 [Ozagrel HCl],percent Bodipy-positive cells,[1],8.06 ± 2.1%
same,percent Bodipy-positive cells,[2],11.6 ± 1.8%
O=C(O)/C=C/c1ccc(Cn2ccnc2)cc1,percent Bodipy-positive cells,[2],6.51 ± 0.4%
O=C(O)/C=C/c1ccc(Cn2ccnc2)cc1 [Ozagrel hydrochloride],percent Bodipy-positive cells,,7.69 ± 2.8%
same,percent Bodipy-positive cells,[2],6.82 ± 0.75%
COCCOC(=O)C1=C(C)NC(C)=C(C(=O)OC/C=C/c2ccccc2)C1c1cccc([N+](=O)[O-])c1 (stereo unspecified) [Cilnidipine],percent Bodipy-positive cells,[1],4.86 ± 2.9%
"CCCCC(C)(C)[C@H](O)C=C[C@H]1[C@H](O)CC(=O)[C@@H]1CCCCCCC(=O)O [16,16-dimethyl Prostaglandin E1]",percent Bodipy-positive cells,[6],18.7 ± 3%
CCOc1nc2cccc(C(=O)O)c2n1Cc1ccc(-c2ccccc2-c2noc(=O)[nH]2)cc1 [Azilsartan],percent Bodipy-positive cells,[1],11.2 ± 4.7%
same,percent Bodipy-positive cells,[2],11.8 ± 1.3%
CCCCC[C@H](O)/C=C/[C@H]1[C@H](O)CC(=O)[C@@H]1CCCCCCCO [Prostaglandin E1 Alcohol],percent Bodipy-positive cells,[6],32.5 ± 9.6%
O=C1c2ccccc2C(Cc2ccnc(F)c2)(Cc2ccnc(F)c2)c2ccccc21,percent Bodipy-positive cells,[2],7.94 ± 2.8%
Cc1cc([C@@H](C)Nc2ccccc2C(=O)O)c2nc(N3CCOCC3)cc(=O)n2c1,percent Bodipy-positive cells,[3],13.2 ± 6.5%
same,percent Bodipy-positive cells,[4],8.82 ± 0.9%
same,percent Bodipy-positive cells,[5],12.8 ± 2.2%
same,percent Bodipy-positive cells,[1],5.49 ± 2.2%
same,percent Bodipy-positive cells,[2],10.4% and 8.75%
CCCCNc1ccc(C(=O)OCCOCCOCCOCCOCCOCCOCCOCCOCCOC)cc1 [Benzonatate],percent Bodipy-positive cells,,31.1 ± 2.6%
O=c1c(-c2ccc(O)cc2)coc2c([C@@H]3O[C@H](CO)[C@@H](O)[C@H](O)[C@H]3O)c(O)ccc12 [Puerarin],percent Bodipy-positive cells,[1],6.79 ± 0.13%
same,percent Bodipy-positive cells,[2],17.6 ± 9.6%
CCn1nc(C(=O)O)c(=O)c2cc3c(cc21)OCO3 [Cinoxacin],percent Bodipy-positive cells,,9.97 ± 0.55%
same,percent Bodipy-positive cells,library stock concentration: 7.6 mM,2.67 ± 1.5%
same,percent Bodipy-positive cells,[2],14.8% and 35.7%
CCCCN1CCC(CCC(=O)c2cc(Cl)c(N)cc2OC)CC1,percent Bodipy-positive cells,[2],36.8 ± 1.3%
Cc1cc(/C=C/c2ccc3cc(N(C)C)ccc3[n+]2C)c(C)n1-c1ccccc1 [Pyrvinium pamoate],percent Bodipy-positive cells,,14.7 ± 5%
same,percent Bodipy-positive cells,library stock concentration: 2.6 mM,59.85 ± 0.29%
same,percent Bodipy-positive cells,[2],79.9 ± 3%
CCCC[C@H](CCC(=O)O)NC(=O)CCCCCCc1ccccc1,percent Bodipy-positive cells,[6],14.2 ± 1.1%
CNC(=O)c1cc2c(cn1)[nH]c1ccccc12,percent Bodipy-positive cells,[2],9.91 ± 1%
CNC(=O)c1cc2c(cn1)[nH]c1ccccc12 [N-Methyl-beta-carboline-3-carboxamide],percent Bodipy-positive cells,[2],63.2 ± 4.2%
Cc1cc(=O)oc2cc(O)ccc12 [4-Methylumbelliferone (4-MU)],percent Bodipy-positive cells,[1],9.39 ± 1.1%
same,percent Bodipy-positive cells,[2],16.5 ± 4.3%
Cc1cc(=O)oc2cc(O)ccc12,percent Bodipy-positive cells,[2],31 ± 9.1%
Cc1cc(=O)oc2cc(O)ccc12 [Hymecromone],percent Bodipy-positive cells,,9.89 ± 0.27%
CC(C)C[C@H](NC(=O)[C@@H](COC(C)(C)C)NC(=O)[C@H](Cc1ccc(O)cc1)NC(=O)[C@H](CO)NC(=O)[C@H](Cc1c[nH]c2ccccc12)NC(=O)[C@H](Cc1cnc[nH]1)NC(=O)[C@@H]1CCC(=O)N1)C(=O)N[C@@H](CCCNC(=N)N)C(=O)N1CCC[C@H]1C(=O)NNC(N)=O [Goserelin acetate],percent Bodipy-positive cells,library stock concentration: 1.6 mM,7.83 ± 2.6%
CC(C)C[C@H](NC(=O)[C@@H](COC(C)(C)C)NC(=O)[C@H](Cc1ccc(O)cc1)NC(=O)[C@H](CO)NC(=O)[C@H](Cc1c[nH]c2ccccc12)NC(=O)[C@H](Cc1cnc[nH]1)NC(=O)[C@@H]1CCC(=O)N1)C(=O)N[C@@H](CCCNC(=N)N)C(=O)N1CCC[C@H]1C(=O)NNC(N)=O,percent Bodipy-positive cells,library stock concentration: 9.6 mM,15.2 ± 2.8%
CCCCCOc1ccccc1C(O)CC#CCCCC(=O)OC (stereo unspecified),percent Bodipy-positive cells,[6],6.31 ± 1.6%
OCCCNc1cc(-c2ccnc(Nc3cccc(Cl)c3)n2)ccn1,percent Bodipy-positive cells,[3],37.7 ± 1.5%
same,percent Bodipy-positive cells,[4],51.5 ± 4.8%
same,percent Bodipy-positive cells,[5],61.8 ± 2.5%
CSc1nc(NC2CCCC2)c([N+](=O)[O-])c(NC2CCCC2)n1,percent Bodipy-positive cells,[2],8.42 ± 2.8%

# Exported bar-delimited: part of the list above.
structure (smiles) | measurement | setting | value
Cc1cc(/C=C/c2ccc3cc(N(C)C)ccc3[n+]2C)c(C)n1-c1ccccc1 [Pyrvinium pamoate] | percent Bodipy-positive cells | [2] | 79.9 ± 3%
CCCC[C@H](CCC(=O)O)NC(=O)CCCCCCc1ccccc1 | percent Bodipy-positive cells | [6] | 14.2 ± 1.1%
CNC(=O)c1cc2c(cn1)[nH]c1ccccc12 | percent Bodipy-positive cells | [2] | 9.91 ± 1%
CNC(=O)c1cc2c(cn1)[nH]c1ccccc12 [N-Methyl-beta-carboline-3-carboxamide] | percent Bodipy-positive cells | [2] | 63.2 ± 4.2%
Cc1cc(=O)oc2cc(O)ccc12 [4-Methylumbelliferone (4-MU)] | percent Bodipy-positive cells | [1] | 9.39 ± 1.1%
same | percent Bodipy-positive cells | [2] | 16.5 ± 4.3%
Cc1cc(=O)oc2cc(O)ccc12 | percent Bodipy-positive cells | [2] | 31 ± 9.1%
Cc1cc(=O)oc2cc(O)ccc12 [Hymecromone] | percent Bodipy-positive cells |  | 9.89 ± 0.27%
CC(C)C[C@H](NC(=O)[C@@H](COC(C)(C)C)NC(=O)[C@H](Cc1ccc(O)cc1)NC(=O)[C@H](CO)NC(=O)[C@H](Cc1c[nH]c2ccccc12)NC(=O)[C@H](Cc1cnc[nH]1)NC(=O)[C@@H]1CCC(=O)N1)C(=O)N[C@@H](CCCNC(=N)N)C(=O)N1CCC[C@H]1C(=O)NNC(N)=O [Goserelin acetate] | percent Bodipy-positive cells | library stock concentration: 1.6 mM | 7.83 ± 2.6%
CC(C)C[C@H](NC(=O)[C@@H](COC(C)(C)C)NC(=O)[C@H](Cc1ccc(O)cc1)NC(=O)[C@H](CO)NC(=O)[C@H](Cc1c[nH]c2ccccc12)NC(=O)[C@H](Cc1cnc[nH]1)NC(=O)[C@@H]1CCC(=O)N1)C(=O)N[C@@H](CCCNC(=N)N)C(=O)N1CCC[C@H]1C(=O)NNC(N)=O | percent Bodipy-positive cells | library stock concentration: 9.6 mM | 15.2 ± 2.8%
CCCCCOc1ccccc1C(O)CC#CCCCC(=O)OC (stereo unspecified) | percent Bodipy-positive cells | [6] | 6.31 ± 1.6%
OCCCNc1cc(-c2ccnc(Nc3cccc(Cl)c3)n2)ccn1 | percent Bodipy-positive cells | [3] | 37.7 ± 1.5%
same | percent Bodipy-positive cells | [4] | 51.5 ± 4.8%
same | percent Bodipy-positive cells | [5] | 61.8 ± 2.5%
CSc1nc(NC2CCCC2)c([N+](=O)[O-])c(NC2CCCC2)n1 | percent Bodipy-positive cells | [2] | 8.42 ± 2.8%
